Results as given in patent publication US20070043034A1, “Chlorine Ion Uptake Modulators and Uses Thereof” (priority 2005, published 2007).
At least one structure is not confirmed: it was looked up by name or label, or the drawing left a doubt.

Key:
[1] = tested on: low-Mg^2+ induced recurrent seizures in the intact hippocampus; assay: Low-Mg2+ ACSF induced recurrent seizures in the intact hippocampus in vitro; type: cell-based, rat; conditions: phenobarbital 100 μM
Description: High expression level of the Na^+ K^+-2Cl^− (NKCCl) co-transporter in immature neurons causes the accumulation of chloride ions and a depolarized Cl^− equilibrium potential (ECl). This is linked to a higher seizure propensity and poor EEG response in neonates to the barbiturates and benzodiazepines, conventional anticonvulsant drugs that target Cl^−-permeable GABAA-receptor (GABAA-R) operated channels. […] Recurrent ictal-like seizures were induced by low-Mg^+ ACSF in intact hippocampal preparations in vitro. […] Bumetanide decreased both seizure frequency and seizure power.
FIGS. 11A-11C are graphs of low-Mg^2+πinduced recurrent seizures in the intact hippocampus in vitro. […] First and last seizures from 5 hour recording are shown on an expanded time scale. Right, corresponding power spectra in the 0.1-1000 Hz frequency band. […] Summary data are taken from ten hippocampi. […] Power of the first seizure in each recording was considered as 100%. Data are taken from 18 recordings in 10 preparations from P4-6 rats.
FIGS. 12A-12C are graphs showing low efficiency of phenobarbital in neonatal seizures. FIG. 12A is a graph showing extracellular field potential recording in the CA3 pyramidal cell layer in the intact hippocampus of a P5 rat. Continuous application of low-Mg^2+ ACSF induced recurrent tonic-clonic seizures. […] The right portion corresponds to power spectra in the 0.1-1000 Hz frequency range. […] Data are from ten experiments that were combined. FIG. 12C is a graph showing power of recurrent seizures before, during and after phenobarbital application. Power of the first seizure in each recording was considered as 100%. Seizures were not depressed by phenobarbital indicating its low efficiency.
FIGS. 13A-13C are graphs showing that alteration of Cl^−-transport by bumetanide enhanced efficacy of phenobarbital in neonatal seizures. FIG. 13A is a graph of extracellular field potential recording in the CA3 pyramidal cell layer in the intact hippocampus of a P5 rat. Application of low-Mg^2+ ACSF induced recurrent seizures. […] These are shown on an expanded time scale. […]

[2] = tested on: 8.5 mM potassium-induced epileptiform activity in hippocampal slices; assay: 8.5 mM K+ induced epileptiform activity in hippocampal slices in vitro; type: cell-based, rat; conditions: for averaged power of epileptiform activity versus control K+ treated samples: phenobarbital 100 μM
Description: In this example, the effects of phenobarbital on recurrent interictal and ictal-like epileptiform activity in the hippocampal slices in vitro from P7-12 rats were studied. Interictal and ictal-like epileptiform activity are typical parameters studied when analyzing seizure activity in control and treated subjects. Phenobarbital exerts its pharmacological effects by allosteric activation of the GABAA receptor, increasing the duration of chloride ion channel opening, without affecting the frequency of opening or channel conductance. Simultaneous multi-site extracellular field potential records were performed in the CA3 pyramidal cell layer. To induce progressive neuronal firing, a bath application of 8.5 mM K+ was applied to the sections that developed to recurrent interictal and ictal-like epileptiform activities (FIG. 2A-2D). […] The power of extracellular field potential during 8.5 mM K+ (potassium) induced epileptiform activity in 0.1-1000 Hz frequency band, that include both gamma and fast ripple oscillations (FIG. 2A-2D).
In one exemplary method, experimental procedures were carried out on hippocampal slices of postnatal days 5 (P5) to P12 male Wistar rats. Animals were anaesthetized and decapitated and hippocampal slices were prepared by known methods. For example, hippocampal transverse slices were cut using Leica VT-100E vibratome (Leica Microsystems Nussloch GmbH, Germany) and kept in oxygenated aCSF at room temperature at least 1 hr before use. Hippocampal slices posterior to the midtemporal (caudal) part of the hippocampus (Paxinos and Watson, 1986) were used in the study.
In one example, electrophysiological recordings are gathered from individual slices and subsequently transferred to a conventional submerged-type chamber and continuously superfused with, for example, oxygenated aCSF. Whole-cell recordings were generated. Patch electrodes were used, made by known methods. For whole-cell recording in voltage-clamp mode pipettes were filled with a buffered solution.
From the example outlined above, extracellular field potentials were recorded and microelectrodes known in the art were used for simultaneous recordings of multiple unit activity (e.g. MUA; 500 Hz high-pass filter), population field activity in EEG band (1-100 Hz), and fast ripple oscillations (200-600 Hz).).
In one experimental example, bumetanide was tested for suppression of a 8.5 mM potassium-induced epileptiform activity in hippocampal slices from P7-9 and PI0-12 rats. […] Averaged power of epileptiform activity was decreased by 71±2.1% (n=9, p=1.57E-12) in P7-9 rat hippocampal slices and by 41.9±1.5% (n=6, p=2.13E-11) at P10-P12 (FIG. 3C).
In another aspect of this example, pharmaceutical compositions of the present invention may be tested for effects on the GABAA receptor using for example a GABAA-R antagonist before, during or after treatment with the pharmaceutical composition. In one example, GABAA receptor antagonists prevented the effect of bumetanide on power of epileptiform activity in the hippocampal slices from neonatal rats (FIGS. 3B and 3D). […] Here, an inhibition of synchronous network activity by bumetanide treatment in the perinatal hippocampal slices in this in vitro experiment was observed and these affects were partially reversed after treatment with bicuculline.

[3] = bumetanide 10 μM or both, 120 min application, intact hippocampus of P4-6 rats
[4] = bicuculline 10 μM bath application, P7-9 slices

Compound | inter-seizure intervals (ISI) ([1]; 120 min, ten experiments) | seizure frequency [1, 3] | seizure power [1, 3] | averaged power of epileptiform activity versus control K+ treated samples ([2]; P7-9, p=0.09) | averaged power of epileptiform activity versus control K+ treated samples ([2]; P10-12, p=0.06) | effect on epileptiform activity ([2]; hippocampal slices from P7-9 rats, bath application phenobarbital 100 μM (n=6) or bumetanide 10 μM (n=10)) | effect on epileptiform activity ([2]; hippocampal slices from P10-12 rats, bath application phenobarbital 100 μM (n=7) or bumetanide 10 μM (n=6)) | amplitude of interictal epileptiform discharges (IED) [2, 4] | frequency of interictal epileptiform discharges (IED) [2, 4]
CCC1(c2ccccc2)C(=O)NC(=O)NC1=O [phenobarbital] | increased the ISIs or abolished the seizures | significantly reduced | not depressed | not significantly different | not significantly different | did not suppress | did not suppress |  | 
CN1CCc2cc3c(cc2[C@H]1[C@@H]1OC(=O)c2c1ccc1c2OCO1)OCO3 [bicuculline] |  |  |  |  |  |  |  | increased the amplitude | reduced the frequency
